In patent publication US20040053355A1, “Modular approach to on-line synthesis, drug discovery and biochemical transformations using immobilized enzyme reactors” (priority 2000, published 2004):
At least one structure is not confirmed: it was looked up by name or label, or the drawing left a doubt.

Biological target: T1, DBH-Glut-P IMER (immobilized dopamine beta-hydroxylase) (Bos taurus, UniProt P15101)
T1 construct: purchased
T1 sequence (P15101 1-610): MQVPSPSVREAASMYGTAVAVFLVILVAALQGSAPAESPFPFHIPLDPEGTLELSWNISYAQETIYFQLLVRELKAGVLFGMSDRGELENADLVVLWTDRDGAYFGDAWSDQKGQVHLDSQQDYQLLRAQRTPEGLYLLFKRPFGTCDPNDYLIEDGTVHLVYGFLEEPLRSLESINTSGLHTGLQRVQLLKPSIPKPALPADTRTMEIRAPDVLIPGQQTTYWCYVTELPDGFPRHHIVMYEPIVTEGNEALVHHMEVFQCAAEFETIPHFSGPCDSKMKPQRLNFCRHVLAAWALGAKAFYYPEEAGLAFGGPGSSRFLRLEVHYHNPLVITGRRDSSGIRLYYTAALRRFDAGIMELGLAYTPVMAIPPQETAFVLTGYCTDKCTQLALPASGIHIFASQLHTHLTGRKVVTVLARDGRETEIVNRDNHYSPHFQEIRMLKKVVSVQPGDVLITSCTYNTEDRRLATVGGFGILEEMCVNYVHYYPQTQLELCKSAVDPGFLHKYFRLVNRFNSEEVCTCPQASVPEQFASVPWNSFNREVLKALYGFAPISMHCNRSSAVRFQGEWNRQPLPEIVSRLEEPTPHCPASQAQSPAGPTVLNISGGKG
Experiment: On-line DBH-Glut-P immobilized enzyme reactor (DBH-Glut-P IMER) HPLC system
Format: biochemical, bovine
Text: DBH immobilized on the IAM or Glut-P stationary phase was packed into a 1 cm×10 mm guard (Regis Technologies). The guard was placed in a holder and the resulting column connected to a chromatographic system. THE DBH-IAM-IMER and the DBH-Glut-P-IMER was washed with sodium acetate buffer [0.1M, pH 5.5] and sodium acetate buffer [0.1M, pH 6.0], respectively. The eluent from both IMERs was collected in order to determine if any of the DBH was being washed off the columns. The Biorad assay was utilized to measure the amount of non-immobilized enzyme. When the columns were not in use they were washed with sodium acetate buffer at the respective pHs and stored at 4° C.
Pumps 2 and 3 on system 2 and 3 were stopped. […]
The enzymatic activity on the DBH-Glut-P was determined by quantification of the amount of product formed with a given substrate. […] The kinetic parameters were determined using standard Michaelis-Menten approach. […] The rates of reaction (Vmax) were calculated using […]mol/mg/min. Results are expressed as mean±standard error of the mean (SEM). […]

## CCCCc1ccc(C(=O)O)nc1 [Fusaric acid, fusaric acid]
  concentration as low as which the IMER is inhibited: 3 nM
